Results are given in words; binding and its absence hold for the method and conditions named. In cells and extracts the contact can be indirect. A yes stands for co-enrichment or nearness to the bait. Other partners may have been found. For some of these results: Sequences can lack the tags named with a protein.

The chains behind the UniProt entries cited, without tags or fusion partners.
UniProt Q92993: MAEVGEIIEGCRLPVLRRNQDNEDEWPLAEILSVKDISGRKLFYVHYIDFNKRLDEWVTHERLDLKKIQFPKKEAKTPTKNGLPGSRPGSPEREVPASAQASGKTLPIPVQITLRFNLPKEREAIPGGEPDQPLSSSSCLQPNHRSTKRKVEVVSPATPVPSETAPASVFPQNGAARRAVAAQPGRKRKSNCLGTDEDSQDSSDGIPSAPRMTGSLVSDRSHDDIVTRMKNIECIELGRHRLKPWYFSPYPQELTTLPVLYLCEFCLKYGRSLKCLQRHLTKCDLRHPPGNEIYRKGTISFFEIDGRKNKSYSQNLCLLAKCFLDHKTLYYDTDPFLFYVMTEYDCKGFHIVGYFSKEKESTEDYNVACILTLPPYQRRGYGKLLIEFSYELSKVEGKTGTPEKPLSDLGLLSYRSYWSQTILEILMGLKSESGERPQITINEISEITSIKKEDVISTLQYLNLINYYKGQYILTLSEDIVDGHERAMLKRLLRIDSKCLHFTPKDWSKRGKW
UniProt Q8IY92: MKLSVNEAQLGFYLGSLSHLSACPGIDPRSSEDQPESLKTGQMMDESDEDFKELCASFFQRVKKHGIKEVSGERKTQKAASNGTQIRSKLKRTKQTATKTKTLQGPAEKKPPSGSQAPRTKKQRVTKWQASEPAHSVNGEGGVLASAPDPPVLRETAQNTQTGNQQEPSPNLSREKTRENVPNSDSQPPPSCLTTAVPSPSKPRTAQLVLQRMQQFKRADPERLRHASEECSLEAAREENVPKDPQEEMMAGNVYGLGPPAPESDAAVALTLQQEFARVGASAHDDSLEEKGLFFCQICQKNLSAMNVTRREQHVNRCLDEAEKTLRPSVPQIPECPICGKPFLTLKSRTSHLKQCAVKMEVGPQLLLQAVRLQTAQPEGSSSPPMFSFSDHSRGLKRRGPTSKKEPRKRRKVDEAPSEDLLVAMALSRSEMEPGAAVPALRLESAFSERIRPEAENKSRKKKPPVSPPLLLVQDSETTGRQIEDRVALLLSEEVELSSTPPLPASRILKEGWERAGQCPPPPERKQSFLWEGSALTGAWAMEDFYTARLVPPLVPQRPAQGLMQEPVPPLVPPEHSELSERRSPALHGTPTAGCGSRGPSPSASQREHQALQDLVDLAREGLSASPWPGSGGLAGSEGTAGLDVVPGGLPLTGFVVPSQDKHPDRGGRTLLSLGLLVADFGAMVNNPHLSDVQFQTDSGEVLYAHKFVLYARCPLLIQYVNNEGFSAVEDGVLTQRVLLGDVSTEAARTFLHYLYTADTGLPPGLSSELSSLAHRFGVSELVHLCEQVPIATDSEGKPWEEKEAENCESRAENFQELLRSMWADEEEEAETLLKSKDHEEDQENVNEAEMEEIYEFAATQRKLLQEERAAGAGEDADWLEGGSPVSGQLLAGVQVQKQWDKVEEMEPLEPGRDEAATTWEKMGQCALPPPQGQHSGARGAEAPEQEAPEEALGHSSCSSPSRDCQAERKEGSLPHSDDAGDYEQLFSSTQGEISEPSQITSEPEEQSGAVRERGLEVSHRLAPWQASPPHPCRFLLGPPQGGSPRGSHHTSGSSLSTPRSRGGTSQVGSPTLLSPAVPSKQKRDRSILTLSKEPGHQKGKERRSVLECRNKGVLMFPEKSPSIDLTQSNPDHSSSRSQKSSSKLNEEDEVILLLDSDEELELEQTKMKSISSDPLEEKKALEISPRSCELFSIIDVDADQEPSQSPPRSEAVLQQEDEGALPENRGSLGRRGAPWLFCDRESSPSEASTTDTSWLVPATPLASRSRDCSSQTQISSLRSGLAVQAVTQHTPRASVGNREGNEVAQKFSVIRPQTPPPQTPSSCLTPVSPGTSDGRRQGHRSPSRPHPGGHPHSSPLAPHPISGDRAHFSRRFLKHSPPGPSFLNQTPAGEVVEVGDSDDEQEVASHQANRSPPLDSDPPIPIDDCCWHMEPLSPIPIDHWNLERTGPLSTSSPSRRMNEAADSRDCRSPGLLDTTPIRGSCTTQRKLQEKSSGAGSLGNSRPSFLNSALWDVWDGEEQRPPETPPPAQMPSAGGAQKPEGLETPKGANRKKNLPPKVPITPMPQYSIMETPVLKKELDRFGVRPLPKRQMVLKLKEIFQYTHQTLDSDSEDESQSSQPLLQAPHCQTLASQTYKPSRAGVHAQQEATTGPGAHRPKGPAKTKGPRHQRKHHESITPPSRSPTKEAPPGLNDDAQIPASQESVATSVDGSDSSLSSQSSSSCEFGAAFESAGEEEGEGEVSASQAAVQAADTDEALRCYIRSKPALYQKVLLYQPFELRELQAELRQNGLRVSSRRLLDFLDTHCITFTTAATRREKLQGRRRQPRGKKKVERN
UniProt Q9NPF5: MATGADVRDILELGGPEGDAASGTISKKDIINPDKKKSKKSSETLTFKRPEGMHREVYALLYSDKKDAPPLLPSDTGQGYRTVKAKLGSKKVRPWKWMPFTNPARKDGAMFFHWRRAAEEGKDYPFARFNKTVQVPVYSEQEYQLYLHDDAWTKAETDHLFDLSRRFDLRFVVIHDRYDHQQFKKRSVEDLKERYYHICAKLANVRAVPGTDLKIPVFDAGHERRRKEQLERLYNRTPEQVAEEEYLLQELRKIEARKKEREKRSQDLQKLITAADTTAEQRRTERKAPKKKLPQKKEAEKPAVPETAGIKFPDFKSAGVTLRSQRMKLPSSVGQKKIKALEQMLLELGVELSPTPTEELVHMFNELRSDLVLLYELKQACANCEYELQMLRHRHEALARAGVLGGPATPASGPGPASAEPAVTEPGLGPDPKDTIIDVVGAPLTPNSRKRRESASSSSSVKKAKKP
UniProt Q9Y265: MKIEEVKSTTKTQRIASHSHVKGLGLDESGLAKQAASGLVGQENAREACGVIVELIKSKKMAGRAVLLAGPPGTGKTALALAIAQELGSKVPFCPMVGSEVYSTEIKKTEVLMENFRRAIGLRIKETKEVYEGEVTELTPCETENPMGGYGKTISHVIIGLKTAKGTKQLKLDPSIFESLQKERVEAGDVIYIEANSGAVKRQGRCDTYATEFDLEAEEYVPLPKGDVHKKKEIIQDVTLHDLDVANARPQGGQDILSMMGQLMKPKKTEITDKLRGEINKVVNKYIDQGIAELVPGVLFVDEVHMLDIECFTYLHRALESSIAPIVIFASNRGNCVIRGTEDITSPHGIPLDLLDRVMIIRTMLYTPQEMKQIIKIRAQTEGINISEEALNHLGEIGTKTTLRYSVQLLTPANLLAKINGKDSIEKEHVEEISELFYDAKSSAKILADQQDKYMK

The values below come from paper PMC7005904.

For assay [1], the target named is T1, SFB-tagged XPF (wild type) (UniProt Q92889).
T1 sequence: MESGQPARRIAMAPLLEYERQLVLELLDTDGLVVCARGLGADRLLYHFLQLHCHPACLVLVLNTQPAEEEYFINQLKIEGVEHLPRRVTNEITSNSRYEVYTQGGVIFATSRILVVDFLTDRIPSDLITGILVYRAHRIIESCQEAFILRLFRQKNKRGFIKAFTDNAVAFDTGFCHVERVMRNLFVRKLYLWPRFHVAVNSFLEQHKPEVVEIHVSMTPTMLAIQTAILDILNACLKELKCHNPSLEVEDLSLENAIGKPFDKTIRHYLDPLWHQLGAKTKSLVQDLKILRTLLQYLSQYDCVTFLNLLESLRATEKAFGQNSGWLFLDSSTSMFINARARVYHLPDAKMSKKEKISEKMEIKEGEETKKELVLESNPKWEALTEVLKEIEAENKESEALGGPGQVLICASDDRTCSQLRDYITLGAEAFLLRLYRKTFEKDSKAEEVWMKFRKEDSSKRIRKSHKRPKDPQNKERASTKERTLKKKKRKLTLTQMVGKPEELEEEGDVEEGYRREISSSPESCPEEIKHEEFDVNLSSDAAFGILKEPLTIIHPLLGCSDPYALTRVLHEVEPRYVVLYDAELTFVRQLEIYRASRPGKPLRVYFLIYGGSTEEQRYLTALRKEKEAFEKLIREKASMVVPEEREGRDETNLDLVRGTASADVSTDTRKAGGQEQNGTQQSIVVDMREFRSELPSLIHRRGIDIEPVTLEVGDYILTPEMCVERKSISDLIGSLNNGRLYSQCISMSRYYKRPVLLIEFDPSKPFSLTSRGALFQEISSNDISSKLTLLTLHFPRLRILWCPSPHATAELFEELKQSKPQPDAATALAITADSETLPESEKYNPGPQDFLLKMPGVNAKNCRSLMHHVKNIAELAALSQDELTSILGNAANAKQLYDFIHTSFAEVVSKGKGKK
Briefly: affinity purification with mass spectrometry; tandem affinity purification from HEK293T stably expressing the SFB-tagged bait: streptavidin beads, biotin elution, S-protein beads; NETN buffer (20 mM Tris-HCl pH 8.0, 100 mM NaCl, 1 mM EDTA, 0.5% Nonidet P-40), 4 °C; performed once.

Another assay has as its target SFB-tagged TIP60 (UniProt Q92993). The description is as above.

Turning to SLX4 (from UniProt Q8IY92 1-1834), the binding result in assay [1] is on record as “binds”.
On to DMAP1 (from UniProt Q9NPF5 1-467), for which the binding entry with SFB-tagged TIP60 is “binds”.
The same measure, in the same setting: with RUVBL1 (from UniProt Q9Y265 1-456) the entry was “binds”.

B1: XPF, endogenous in HEK293T (protein, UniProt Q92889 1-916)
chain: MESGQPARRIAMAPLLEYERQLVLELLDTDGLVVCARGLGADRLLYHFLQLHCHPACLVLVLNTQPAEEEYFINQLKIEGVEHLPRRVTNEITSNSRYEVYTQGGVIFATSRILVVDFLTDRIPSDLITGILVYRAHRIIESCQEAFILRLFRQKNKRGFIKAFTDNAVAFDTGFCHVERVMRNLFVRKLYLWPRFHVAVNSFLEQHKPEVVEIHVSMTPTMLAIQTAILDILNACLKELKCHNPSLEVEDLSLENAIGKPFDKTIRHYLDPLWHQLGAKTKSLVQDLKILRTLLQYLSQYDCVTFLNLLESLRATEKAFGQNSGWLFLDSSTSMFINARARVYHLPDAKMSKKEKISEKMEIKEGEETKKELVLESNPKWEALTEVLKEIEAENKESEALGGPGQVLICASDDRTCSQLRDYITLGAEAFLLRLYRKTFEKDSKAEEVWMKFRKEDSSKRIRKSHKRPKDPQNKERASTKERTLKKKKRKLTLTQMVGKPEELEEEGDVEEGYRREISSSPESCPEEIKHEEFDVNLSSDAAFGILKEPLTIIHPLLGCSDPYALTRVLHEVEPRYVVLYDAELTFVRQLEIYRASRPGKPLRVYFLIYGGSTEEQRYLTALRKEKEAFEKLIREKASMVVPEEREGRDETNLDLVRGTASADVSTDTRKAGGQEQNGTQQSIVVDMREFRSELPSLIHRRGIDIEPVTLEVGDYILTPEMCVERKSISDLIGSLNNGRLYSQCISMSRYYKRPVLLIEFDPSKPFSLTSRGALFQEISSNDISSKLTLLTLHFPRLRILWCPSPHATAELFEELKQSKPQPDAATALAITADSETLPESEKYNPGPQDFLLKMPGVNAKNCRSLMHHVKNIAELAALSQDELTSILGNAANAKQLYDFIHTSFAEVVSKGKGKK
Consider B1, for which the binding entry with SFB-tagged TIP60 is “binds”.
